This is an account of results in the supplement of paper PMC6289059.

Values joined by “and” are separate entries in the source; they are usually repeats but may differ in a detail not shown here. Identical values can stand only once. The list shows a part of the results. Repeats are few or missing, and single values can be far off.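 The assay uses human stem cell-derived hepatocyte-like cells whose DGUOK gene was disrupted by CRISPR, modeling liver mtDNA depletion syndrome. ATP signals were scored within each plate, and any drug with a score of at least 3 was called a primary hit.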

In this assay the test system is DGUOK Δ14/Δ5 iPSC-derived hepatocyte-like cells (SV20). Kind of assay: ATP level (CellTiter-Glo luminescence) Z score relative to plate distribution, under 2-DG glycolysis block; higher = more cellular ATP (rescue of mitochondrial ATP production). The settings on record: 5 µM; treatment time: day 15 to day 20 of differentiation (5 days); 2-deoxy-D-glucose: 20 mM for 24 h before assay. (In general: Cellular ATP, detected with luciferase, serves as a proxy for viable cell number.)
Consider `Oc1noc2c1CCNC2`, for which the ATP level is inactive: -0.518.
With `COc1cc([C@@H]2c3cc4c(cc3[C@H](O)[C@H]3COC(=O)[C@@H]23)OCO4)cc(OC)c1OC` the figure was inactive: 1.11; with `CCCC(C)C1(CC)C(=O)NC(=S)NC1=O` (stereo not given), inactive: 2.28; with `O=C1C=C2C=C[C@@H]3C[C@@]2(O1)[C@H]1CCCCN31`, inactive: 0.329.
With `CC(C)=CC1C(C(=O)OCc2cccc(Oc3ccccc3)c2)C1(C)C` (stereo not given) the figure was inactive: 2.77; with `NC(=O)C[S@@+]([O-])C(c1ccccc1)c1ccccc1`, inactive: 0.23.
With `C[CH2][Hg][S]c1ccccc1C(=O)[O-].[Na+]` the figure was inactive: -15.1; with `CC1(C)C(=O)C=C[C@]2(C)[C@H]3CC[C@@]4(C)[C@H](c5ccoc5)OC(=O)[C@H]5O[C@]54[C@]3(C)[C@H](O)C[C@@H]12`, inactive: -1.4.
Regarding `CC[C@H](C)[C@H]1O[C@]2(C=C[C@@H]1C)C[C@@H]1C[C@@H](C/C=C(\C)[C@@H](O[C@H]3C[C@H](OC)[C@@H](O[C@H]4C[C@H](OC)[C@@H](O)[C@H](C)O4)[C@H](C)O3)[C@@H](C)/C=C/C=C3\CO[C@@H]4[C@H](O)C(C)=C[C@@H](C(=O)O1)[C@]34O)O2.CO[C@H]1C[C@H](O[C@H]2[C@H](C)O[C@@H](O[C@@H]3/C(C)=C/C[C@@H]4C[C@@H](C[C@]5(C=C[C@H](C)[C@@H](C(C)C)O5)O4)OC(=O)[C@@H]4C=C(C)[C@@H](O)[C@H]5OC/C(=C\C=C\[C@@H]3C)[C@]54O)C[C@@H]2OC)O[C@@H](C)[C@@H]1O` [ABAMECTIN (avermectin B1a shown)], the ATP level was inactive: -13.9.
`COc1cc([C@@H]2c3cc4c(cc3[C@H](OC(C)=O)[C@H]3COC(=O)[C@H]23)OCO4)cc(OC)c1OC`: the ATP level was inactive: -1.34.
Regarding `Nc1ccncc1`, the ATP level was inactive: -0.339.
`CN(C)Cc1c[nH]c2ccccc12`: the ATP level is inactive: -0.375.
With `COC(=O)[C@@H]1C[C@H](OC(C)=O)C(=O)[C@H]2[C@@]1(C)CC[C@H]1C(=O)O[C@H](c3ccoc3)C[C@]21C` the figure was inactive: 1.8; with `CC[C@@H](C(N)=O)N1CCCC1=O`, inactive: 0.599; with `O=C(O)CCCc1ccc(N(CCCl)CCCl)cc1`, inactive: 0.619.
`CC[C@@]1(O)C[C@H](O)c2c(cc3c(c2O)C(=O)c2c(O)ccc(O)c2C3=O)[C@H]1C(=O)OC`: the ATP level is inactive: -0.192.
Consider `O=C(O[C@H]1C[C@H]2CC[C@@H](C1)[N+]21CCCC1)C(O)(c1ccccc1)c1ccccc1`, for which the ATP level is inactive: 1.47.
With `COc1ccc(C(=O)N2CCCC2=O)cc1` the figure was active: 5.54; with `N.N.[Cl][Pt][Cl]`, inactive: -14.9; with `CCCN1C[C@H](CSC)C[C@@H]2c3cccc4[nH]cc(c34)C[C@H]21`, inactive: -0.695.
Regarding `CC1=C(O)C(=O)C=C2C1=CC=C1[C@@]2(C)CC[C@@]2(C)[C@@H]3C[C@](C)(C(=O)O)CC[C@]3(C)CC[C@]12C`, the ATP level was inactive: -6.24.
Consider `N#C/C(=C\c1ccc(O)cc1)C(=O)O` [alpha-CYANO-4-HYDROXYCINNAMIC ACID], for which the ATP level is inactive: 0.532.
On to `CC(=O)Oc1ccc(/C=C/c2cc(OC(C)=O)cc(OC(C)=O)c2)cc1`, for which the ATP level is inactive: -0.68.
With `Oc1cccc2cccnc12` the figure was inactive: 1.32; with `CC(C)(O)C(Cl)(Cl)Cl`, inactive: -0.353; with `COC(=O)[C@]1(C)CC[C@]2(C)CC[C@]3(C)C4=CC=C5C(=CC(=O)C(O)=C5C)[C@]4(C)CC[C@@]3(C)[C@@H]2C1`, inactive: 2.01.
Regarding `Cc1ncc(CNC(=O)N(CCCl)N=O)c(N)n1`, the ATP level is inactive: 2.69.
For `CN1CCCCC1c1ccc(-c2cccnc2)nc1` (stereo not given) the value was inactive: -2.43; for `CCCCCCCCCc1ccc(O)cc1`, inactive: -1.48; for `COc1ccc2[nH]cc(CCN)c2c1`, inactive: 0.81.
For `CNc1ccc(C(=O)CC(O)CCC(C)C2OC(=O)CC(O)CC(=O)CC(O)CC(O)CC(O)CC(O)CC3(O)CC(O)C(C(=O)OC)C(CC(O[C@@H]4O[C@H](C)[C@@H](O)[C@H](N)[C@@H]4O)/C=C/C=C/C=C/C=C/C=C/C=C/C=C/C2C)O3)cc1.COC(=O)C1C(O)CC2(O)CC(O)CC(O)CC(O)CC(O)CC(=O)CC(O)CC(=O)OC(C(C)CCC(O)CC(=O)c3ccc(N)cc3)C(C)/C=C/C=C/C=C/C=C/C=C/C=C/C=C/C(O[C@@H]3O[C@H](C)[C@@H](O)[C@H](N)[C@@H]3O)CC1O2` (stereo not given in full) the value was inactive: -0.567; for `CN(C)[C@@H]1C(=O)C(C(N)=O)=C(O)[C@@]2(O)C(=O)C3=C(O)c4c(O)ccc(Cl)c4[C@@](C)(O)[C@H]3C[C@@H]12`, inactive: -2.84.
With `CC[C@@]1(O)C(=O)OCc2c1cc1n(c2=O)Cc2cc3ccccc3nc2-1` the figure was inactive: -7.85; with `N#Cc1nn(-c2c(Cl)cc(C(F)(F)F)cc2Cl)c(N)c1[S+]([O-])C(F)(F)F` (stereo not given), inactive: 0.0825; with `O=C1C[C@@H]2OCC=C3CN4CC[C@]56c7ccccc7N1[C@H]5[C@H]2[C@H]3C[C@H]46`, inactive: 0.0652.
In the case of `CC(C)=CCC[C@]1(C)C=Cc2c(O)c3c(c(CC=C(C)C)c2O1)O[C@]12C(=C[C@@H]4C[C@H]1C(C)(C)O[C@@]2(C/C=C(/C)C(=O)O)C4=O)C3=O`, the ATP level was inactive: -10.2.
As for `NCCc1cc(O)c(O)cc1O`, the ATP level was inactive: 1.76.
With `C=C(C)c1cc2cc(C(C)=O)c(O)cc2o1`, the ATP level is inactive: -5.65.
For `c1ccc2nc(N3CCNCC3)ccc2c1` the value was inactive: 2.24; for `C[N+](C)(C)CCCCCCCCCC[N+](C)(C)C`, inactive: -11.6; for `C[N+]1(C)[C@@H]2CC[C@H]1C[C@@H](OC(=O)C(CO)c1ccccc1)C2` (stereo not given in full), inactive: 0.656.
For `CN1C[C@H](C(=O)N[C@]2(C)O[C@@]3(O)[C@@H]4CCCN4C(=O)[C@H](Cc4ccccc4)N3C2=O)C[C@@H]2c3cccc4[nH]cc(c34)C[C@H]21` the value was inactive: -1.49; for `CC(=O)OC1CN2CCC1CC2` (stereo not given), inactive: 0.601; for `CC(CCc1ccccc1)NC(C)C(O)c1ccc(O)cc1` (stereo not given), inactive: -1.11.
For `COc1cccc(C2(O)CCCCC2CN(C)C)c1` (stereo not given) the value was inactive: 0.885.
As to `CC(C)N(CCC(C(N)=O)(c1ccccc1)c1ccccn1)C(C)C` (stereo not given), the ATP level is inactive: 1.44.
As to `CC[C@@]1(O)C[C@H](O[C@H]2C[C@H](N(C)C)[C@H](O)[C@H](C)O2)c2c(cc3c(c2O)C(=O)c2c(O)cccc2C3=O)[C@H]1C(=O)OC`, the ATP level was inactive: -11.9.
With `N=C(N)NN` the figure was inactive: 1.45 and inactive: 1.5; with `C[C@H](N)[C@H](O)c1ccc(O)c(O)c1`, inactive: 0.465; with `O=[N+]([O-])O[C@@H]1CO[C@H]2[C@@H]1OC[C@@H]2O`, inactive: -8.62.
In the case of `N[C@@H](Cc1ccc(N(CCCl)CCCl)cc1)C(=O)O`, the ATP level was inactive: 1.82.
With `NC(=O)c1ccc(N)nc1` the figure was active: 3.15; with `CC1=CC(=O)c2c(O)cccc2C1=O`, inactive: -18.3.
For `O=C1CN=C(c2ccccc2Cl)c2cc([N+](=O)[O-])ccc2N1` the value was inactive: -1.1; for `C[C@H]1O[C@H](O[C@H]2[C@H](O)[C@@H](O)[C@@H](O)[C@H](O)[C@@H]2O)[C@@H](N)C[C@@H]1NC(=N)C(=O)O`, inactive: -0.815; for `Nc1nc(N)nc(NC2CC2)n1`, inactive: 0.542.
Regarding `Cc1ccc(-c2nc3ccc(C)cn3c2CC(=O)N(C)C)cc1`, the ATP level was inactive: -1.25.
Regarding `CN1[C@@H]2CC[C@H]1C[C@@H](OC(=O)[C@H](CO)c1ccccc1)C2`, the ATP level was inactive: -0.237.
For `CC(=O)O[C@H]1C[C@@H](OC(C)=O)C(C)(C)C2C[C@@H](OC(C)=O)[C@]3(C)C(CC[C@@]4(C)[C@H](c5ccoc5)C(=O)[C@H]5O[C@]543)[C@]21C` (stereo not given in full) the value was inactive: 1.59; for `C=C(C)[C@H]1CN[C@H](C(=O)O)[C@H]1CC(=O)O`, inactive: -2.3; for `C[C@@H]1CC[C@@]2(OC1)O[C@H]1[C@@H](O)[C@H]3[C@@H]4CC[C@H]5C[C@@H](O[C@@H]6O[C@H](CO)[C@H](O[C@@H]7O[C@H](CO)[C@@H](O)[C@H](O[C@@H]8OC[C@@H](O)[C@H](O)[C@H]8O)[C@H]7O[C@@H]7O[C@H](CO)[C@H](O)[C@H](O[C@@H]8O[C@H](CO)[C@@H](O)[C@H](O)[C@H]8O)[C@H]7O)[C@H](O)[C@H]6O)[C@H](O)C[C@]5(C)[C@H]4CC[C@]3(C)[C@H]1[C@@H]2C`, inactive: 0.81.
In the case of `Cc1cc(O)ccc1Cl`, the ATP level is inactive: -0.148.
For `CC(C)[C@@H]1NC(=O)[C@H](C)OC(=O)[C@@H](C(C)C)NC(=O)[C@@H](C(C)C)OC(=O)[C@H](C(C)C)NC(=O)[C@H](C)OC(=O)[C@@H](C(C)C)NC(=O)[C@@H](C(C)C)OC(=O)[C@H](C(C)C)NC(=O)[C@H](C)OC(=O)[C@@H](C(C)C)NC(=O)[C@@H](C(C)C)OC1=O` the value was inactive: -15.7; for `C=C[C@H]1CN2CC[C@H]1C[C@H]2[C@H](OC(=O)OCC)c1ccnc2ccc(OC)cc12`, inactive: 1.59; for `CC(=O)Oc1c2c(c(CC=C(C)C)c3c1C(=O)C1=C[C@@H]4CC5C(C)(C)OC(C/C=C(\C)C(=O)O)(C4=O)[C@@]15O3)OC(C)(CCC=C(C)C)C=C2` (stereo not given in full), inactive: -9.72.
For `COc1ccc(CN2CCNCC2)c(OC)c1OC` the value was inactive: 0.307; for `Nc1ncn[nH]1`, inactive: 1.01.
With `CC(C)=CCCC1(C)C=Cc2c(O)c3c(c(CC=C(C)C)c2O1)OC12C(CC4CC1C(C)(C)OC2(C/C=C(/C)C(=O)O)C4O)C3=O` (stereo not given) the figure was inactive: -0.0584.
As for `CC[C@H]1CN2CC[C@H]1C[C@@H]2[C@@H](O)c1ccnc2ccc(OC)cc12`, the ATP level was inactive: -0.471.
Take `CC(Cl)(Cl)C(=O)O`: the ATP level was inactive: 0.429.
